Test results published in the supplement of paper PMC3334620.
Whole data set: some 33,000 sequences, median “E-score (-0.5 to 0.5)” near -0.016, cut for the highest 2% near 0.3. The list shows a part of the results.

molecular target: T1, Yer184c (UniProt P39961); assay: PBM E-score (8-mer binding enrichment) (E-score (-0.5 to 0.5)); higher = stronger / more preferred TF binding; details: protein concentration: 100 nM; construct: GST-full length
T1 sequence: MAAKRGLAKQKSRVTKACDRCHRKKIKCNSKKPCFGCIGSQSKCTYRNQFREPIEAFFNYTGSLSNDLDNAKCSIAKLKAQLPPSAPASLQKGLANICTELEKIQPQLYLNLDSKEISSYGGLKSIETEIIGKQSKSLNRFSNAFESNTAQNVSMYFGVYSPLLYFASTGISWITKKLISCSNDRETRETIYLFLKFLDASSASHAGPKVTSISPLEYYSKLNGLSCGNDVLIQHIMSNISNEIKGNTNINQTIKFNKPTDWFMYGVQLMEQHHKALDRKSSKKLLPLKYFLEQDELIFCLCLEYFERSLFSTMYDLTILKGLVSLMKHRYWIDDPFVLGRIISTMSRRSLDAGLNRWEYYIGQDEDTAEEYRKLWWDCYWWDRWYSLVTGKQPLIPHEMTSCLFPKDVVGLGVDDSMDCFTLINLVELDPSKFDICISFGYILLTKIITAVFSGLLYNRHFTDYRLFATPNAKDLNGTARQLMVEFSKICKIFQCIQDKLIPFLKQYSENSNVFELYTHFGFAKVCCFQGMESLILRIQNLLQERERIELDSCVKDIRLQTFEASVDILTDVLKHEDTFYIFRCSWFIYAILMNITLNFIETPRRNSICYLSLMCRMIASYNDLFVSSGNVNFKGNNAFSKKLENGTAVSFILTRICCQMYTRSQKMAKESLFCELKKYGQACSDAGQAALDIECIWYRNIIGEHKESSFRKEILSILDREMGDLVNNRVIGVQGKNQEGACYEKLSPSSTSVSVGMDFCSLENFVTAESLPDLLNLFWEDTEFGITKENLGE
Description: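 Universal 'all 10-mer' protein binding microarrays (Agilent AMADID 015681) probed with GST-tagged S. cerevisiae TFs (full-length or DBD) made by in vitro transcription/translation (PURExpress), about 100-200 nM. Bound TF was detected with fluorescent anti-GST. Each ungapped 8-mer (which stands for itself and its reverse complement) is scored by the PBM enrichment score (E-score), a modified Wilcoxon-Mann-Whitney statistic from -0.5 to +0.5, computed with the Universal PBM Analysis Suite. Scale: above 0.35 generally sequence-specific binding.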

Sequence	PBM E-score
AGGAGTTG	-0.00901
CAAAGCCC	-0.127
ACGTGGAC	-0.164
AAGCATAT	0.125
AACCTTCA	-0.191
AGCCTACC	-0.149
GCAATAAA	0.247
CGTGTCGA	-0.0581
AATATACG	-0.262
CATAACTC	0.00676
CAGGCAAC	-0.128
ATAATGTG	0.0676
CGTATAAG	-0.0423
ATCTGACG	-0.251
ACGACAGC	-0.0485
AATAGATT	0.151
CGATTAAG	0.00842
CACCCTAG	-0.0649
AATGTGGC	-0.152
AAGATACT	0.0505
ACCCTCAG	-0.189
GCGAGCGA	0.0129
ATCGCATG	-0.00236
CAACGAAA	0.188
ACGGGAGG	-0.176

Sequence	PBM E-score
GTTAATCA	0.234
ATTAGGAC	-0.0657
TCTTACAA	-0.0372
CCAAGTTC	-0.141
GTGTTCCA	-0.0649
GCCGCTCA	-0.0363
GTAAACTA	0.185
GCACCAGC	-0.192
CGGCCCTA	0.125
ATCCAGAC	0.14
GCACCAAA	-0.0822
CTTAGTAC	-0.0475
AGAGGTGA	-0.148
AGTCAACG	-0.136
AGTTAATC	0.00661
ATGGAACG	0.00149
GAAAACAC	0.163
AGTTGCGG	0.154
ACGCCCTA	-0.255
AGCCGTGA	0.16
ACAGTTAA	0.125
GACGCAAC	0.0713
AAGTCCAT	-0.193
ACAAGGTC	-0.234
ATCCATCC	0.16

Part of the list above in a different format:

| Sequence | PBM E-score |
| --- | --- |
| ATGGAACG | 0.00149 |
| GAAAACAC | 0.163 |
| AGTTGCGG | 0.154 |
| ACGCCCTA | -0.255 |
| AGCCGTGA | 0.16 |
| ACAGTTAA | 0.125 |

Six entries drawn at random from the list so far:
Sequence	PBM E-score
ACAGTTAA	0.125
GTTAATCA	0.234
ACAAGGTC	-0.234
GCACCAAA	-0.0822
ATCCATCC	0.16
ATCCAGAC	0.14

Additional records

Sequence	PBM E-score
GTAAGCCA	-0.257
CATCATGC	-0.0578
AAGCGGAA	0.211
ATTTCTTG	0.216
CATTATGC	-0.0504
AGTGAAAC	-0.0495
CCCATATA	-0.0191
GGGACACA	0.00539
CCCATCCG	-0.0892
ATATTCTC	0.0873
CATATGAC	0.0268
GAGTTACA	0.108
GCACTTCA	0.0823
TCTGAAAA	0.0749
CATATAAA	0.0973
GAGCCACC	-0.152
ATGCAAAA	0.224
CATCACCG	-0.0829
CGGATCTC	0.147
CCTCGAAC	-0.114
CTCTCGGA	0.278
CGGTGAGC	-0.157
ATAGTGTC	0.0385
CGCAAGTA	0.0344
CCGCTCGA	-0.00989

Sequence	PBM E-score
AACCGAAC	0.177
CCTGTCTA	-0.162
AGTTCACG	-0.0529
CCTGGCGC	-0.0184
CCGACAAA	0.275
CCGAGAAG	0.193
CAACTCCC	0.0639
CGCTTCGC	-0.0541
AAGTTCAC	0.019
AACCCAAT	0.00121
CAACCCAC	-0.141
CCCTGTAC	-0.286
AATGGACA	0.134
TGTTATAA	0.259
GCGGAGAA	0.114
AGCTAGTG	-0.222
GTTAAGAA	0.0326
ATTCACGG	0.277
CCTCGTGA	-0.00103
ACCCCAGC	-0.113
CCCGACAG	-0.027
ATTACGAA	0.168
ACGCAAAC	0.0183
CGGCATAG	0.2
TATTTTAA	0.235

Sequence	PBM E-score
CCCATCAG	-0.304
AGGCCGGC	0.265
CCCGTTAG	-0.167
ATATGAAT	0.156
ATGAACTA	0.0664
GATGGTGC	-0.351
AGGTGCTA	-0.032
ATACGTGA	0.0288
CCCAGCCA	-0.0678
ATGTCTAG	0.179
CCTCGGTA	-0.0209
ACGTCTTC	-0.0691
CGCGTTAG	0.127
ACCTATGC	-0.248
CGGTGTAG	-0.089
ATAGTACA	0.083
CCATTCTC	-0.00493
AGCTGCGC	-0.0697
TAAATCTA	0.0882
AGGGAAGG	-0.344
ACTTGCGC	-0.0539
AAGCATCA	-0.0222
ACCACTTC	-0.122
AACGCAAT	0.182
TCTCAAGA	-0.0209

Sequence	PBM E-score
GTCTTGGA	-0.154
CGTATGGC	0.0401
AAGAGTAC	-0.00139
CCGCGCCC	-0.109
AATAGAGC	0.0757
GGCCCGGA	0.301
GCTCCCGA	-0.0688
CGAGGTCA	-0.0958
CAAAATCA	0.0587
CACGGAAG	0.149
GAGCGCGA	0.0441
AACGTAGC	-0.185
ATGACTTA	-0.016
GCTGCTCC	-0.0809
ACCCTTCT	-0.267
TCCGCTAA	0.0916
CGCCGTCA	-0.0816
CGCTGTAC	-0.117
ACATGGGC	-0.0112
TCGCTGCA	-0.0505
CTGGATTA	0.151
TTACACAA	0.233
CTGTAGAC	-0.0558
ATACTCGA	-0.0376
CGCGCGCG	0.148

Sequence	PBM E-score
AAGACCGC	-0.0823
ACCAACTA	-0.0397
TCCGGAGA	0.397
CATCATCG	-0.0011
CCACCTAG	-0.247
GCTGGGCA	0.144
TAGGCAGA	0.198
AGGTCCTC	-0.11
AGCGTGAA	-0.162
ATTTACGA	0.194
GAGTGATC	-0.11
ATCTGACC	0.21
CCCTTAAA	-0.0406
ATTTCCAG	0.0278
CCCATATC	-0.167
GCTTCTAA	-0.189
CGCAACAA	-0.00856
AAAACAAC	-0.0119
CCTCCATC	-0.235
CAGGTTGA	-0.207
CACATAGG	-0.256
ATTGCTTC	0.00217
AAAATAAG	0.106
CGAACGCA	0.299
GCGCCTCA	-0.109

Sequence	PBM E-score
CCATGCAG	-0.124
ATCGCGGC	0.213
CACTCAAG	-0.257
ACATTTCT	0.145
AGGGCAAC	-0.00172
AACCGGCA	0.238
GCTTAGAA	-0.0306
AATCCATC	-0.0869
CTGTAGCA	-0.154
CAAAGTTA	0.0674
ATCTTAAT	0.00364
CTGGTTAC	-0.239
GGCTCGGA	0.187
CAAGCGAA	-0.114
TCGGCCCA	0.265
ATTTGGGG	-0.185
AGCAACTA	0.19
GAGGCGAC	-0.128
CCTTAGTC	-0.202
TCGTTACA	0.00328
GGTAGGGA	-0.192
AAGGCCGG	0.318
ACTTACAT	-0.00026
AGAAACAC	0.0558
CCCGCTAC	-0.00669

Sequence	PBM E-score
GACGTCAC	-0.206
AAAAGGAT	0.143
ACCATAAC	0.0317
CCTCTGTC	-0.178
CACGTAAA	-0.00961
AGCGTGCC	-0.152
CTCAGTAC	-0.00937
ACTGGCTA	-0.119
GAGTTCCA	-0.0604
CGCCCCAA	-0.0397
GCTGTCCC	-0.111
CGTTTCTC	-0.00246
AGGAGTAG	0.0149
AGATAGGA	-0.0667
ACATCGAA	0.0282
CAACAAGA	0.0211
AGGACCAA	-0.0299
CCACCTAC	-0.322
CATAAAAG	0.0882
AACTCCAA	0.0187
GGGCGGGA	0.0538
AGCGTTTG	-0.106
CGGAGTGC	0.226
ACAGGGGT	-0.411
AGCAGCAA	0.0416

Sequence	PBM E-score
GCAGGCAC	-0.315
ACGACCGT	-0.267
AGGATCGC	-0.0928
CGAGTACA	0.0359
ACCAACAC	0.0322
CCGTCCAA	-0.024
ACTACCCT	-0.329
ACCCTTAA	-0.108
AGCTGCAC	-0.0993
GACTCCAC	-0.343
CTAAGAAA	0.198
AACTCACA	0.0709
CCAACCAC	-0.0234
TCGGGCCA	0.0421
ACTCTTTG	-0.189
GTAATCAC	0.0256
AGCGCACA	-0.207
CACGCGTG	0.0284
TACCCAGA	-0.0631
CCGATCAG	0.159
CGTAGTTA	0.174
ATCGGGAA	0.236
CCCCGTTC	-0.181
AACCGTAC	-0.0653
CACCGAAC	0.143

Sequence	PBM E-score
ACGTTAAT	0.117
GATAAGCC	0.0247
ACCCACCG	-0.11
CCGCTCCA	-0.0411
CCCGTAAA	0.0406
AGGCTCCA	-0.233
CATATTAG	0.105
GACCGGTC	0.195
GTATGTAA	0.0628
GACCTTCC	-0.131
CACAATTA	-0.0124
ACACGGAC	0.212
ATTCCTGG	-0.138
GCGGCCAA	-0.0147
ATTACTAG	0.0017
GAAGGGGA	-0.201
ACATGGGA	-0.0714
GGCTTGTA	-0.219
CGGATCAC	0.277
GCCTTACA	-0.205
AGACAGCC	-0.136
CCCTTTAA	0.0626
TATACGGA	0.136
AGTAAGCG	0.0285
AAGTTCTC	0.0984

Sequence	PBM E-score
TATGCTAA	0.00189
CCACCGTC	-0.225
AAGTACCG	0.189
CACGCCTG	-0.275
CTGAACGA	-0.0934
ATGCCGTA	0.196
CGCATTGC	0.108
AACCGATC	0.0319
GTCACATA	0.127
CTCTCTCA	-0.085
CATCTCAC	-0.0202
CTCCGGCC	0.125
CACACACC	-0.0823
AAGGATTG	0.0885
ACATCGTG	-0.0241
AGCACCAA	-0.0172
CCATCCGC	-0.0867
AAGTTTGT	0.188
TGGCGTAA	-0.0515
CCTCAAGG	-0.142
CAAGGCAG	-0.269
AGGCGTGA	-0.181
CGATCCAC	-0.197
ATGCAGGC	-0.185
AAAGAGGC	-0.258

Sequence	PBM E-score
ACTGACAC	-0.0181
AAGGGAAT	-0.178
ATTCCACC	0.205
GAGCCGAA	0.372
ATCGAAGA	0.214
GCCCCCAC	-0.344
CTCCTCTC	-0.281
TACAGCCA	-0.153
TTCCACAA	0.21
CGTAATAA	-0.0248
CGCACTAA	0.0791
ACGAGGAC	-0.0738
CGTATCGC	-0.00721
AGCTACAC	0.00807
CGGCTGAC	0.172
CTTCTCGC	-0.0175
CGGTTGCA	-0.00495
ACGAATCG	0.126
CGGAGCCG	0.309
GATACAGA	0.11
AGCGAACG	-0.0892
ATTTCGCC	0.162
CGTTTCTA	0.0816
ATCATGAG	-0.0705
GATACCTA	0.021

At a glance, part of the list above.
Sequence	PBM E-score
AATATACG	-0.262
CATAACTC	0.00676
CAGGCAAC	-0.128
ATAATGTG	0.0676
CGTATAAG	-0.0423

Further entries:

Sequence	PBM E-score
CCCACGAA	-0.0234
CTTAGGAC	-0.147
TACTAGCA	0.083
AGTGTTTG	0.00995
TCCAGTAA	-0.111
ACATTTAG	-0.136
TCGATCGA	0.177
AATCCTGG	-0.137
GATAGGTA	-0.00859
GCTCGCGA	0.0684
CGCCGTGC	0.0229
CATGCCAG	-0.161
GTTCTCTA	0.0528
CGCTTAGA	-0.255
GAAGGTGC	-0.205
AAACCCTT	-0.201
GATATCTA	0.00957
CATCGCCA	-0.0356
AGCGTTAT	-0.102
